Assay results as given in patent US5538945A (ProCyte Corporation, priority 1994, dated 1996).

Assay: general procedure: solution-phase peptide synthesis; isobutyl chloroformate / N-methylmorpholine (mixed anhydride)
Details: late stage modification step, dihydrochloride

| Substance | step yield |
| --- | --- |
| Glycyl-L-Histidyl-L-Lysyl-L-Phenylalanyl-L-Phenylalanine | 82% |
| Glycyl-L-Histidyl-L-Lysyl-L-Phenylalanine | 94% |
